No constants are given. Whether binding was seen depends on the method and setting. In cells and extracts the contact can be indirect. Some binding calls cover weakened binding; strength is not graded here. Where a sequence is shown, tags or fusion partners need not be part of it.
How the values were obtained:
[1] = target: T1, VosA-HA (A. nidulans VosA with HA tag) (A. nidulans) (UniProt Q5BBX1); assay: co-IP; GFP and HA (anti-HA agarose) pull-downs from vegetative mycelium of A. nidulans strains expressing veA:HA or vosA:HA and velB:gfp or velB^ΔIDD:gfp under native promoters, intact veA; Western with GFP and HA antibodies
T1 sequence: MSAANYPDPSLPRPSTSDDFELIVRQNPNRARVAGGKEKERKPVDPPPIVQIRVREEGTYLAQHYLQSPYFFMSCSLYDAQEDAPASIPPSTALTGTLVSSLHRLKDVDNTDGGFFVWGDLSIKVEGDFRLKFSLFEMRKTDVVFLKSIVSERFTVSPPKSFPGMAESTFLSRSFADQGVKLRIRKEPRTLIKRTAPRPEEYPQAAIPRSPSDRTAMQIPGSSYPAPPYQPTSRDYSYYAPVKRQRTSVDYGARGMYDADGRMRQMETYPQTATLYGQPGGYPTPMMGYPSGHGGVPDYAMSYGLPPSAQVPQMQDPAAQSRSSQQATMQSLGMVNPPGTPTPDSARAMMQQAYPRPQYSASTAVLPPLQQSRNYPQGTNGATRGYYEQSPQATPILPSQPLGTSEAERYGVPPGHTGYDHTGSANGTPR

Amino acid sequences for entries named in this document (tags omitted).
UniProt C8VTS4: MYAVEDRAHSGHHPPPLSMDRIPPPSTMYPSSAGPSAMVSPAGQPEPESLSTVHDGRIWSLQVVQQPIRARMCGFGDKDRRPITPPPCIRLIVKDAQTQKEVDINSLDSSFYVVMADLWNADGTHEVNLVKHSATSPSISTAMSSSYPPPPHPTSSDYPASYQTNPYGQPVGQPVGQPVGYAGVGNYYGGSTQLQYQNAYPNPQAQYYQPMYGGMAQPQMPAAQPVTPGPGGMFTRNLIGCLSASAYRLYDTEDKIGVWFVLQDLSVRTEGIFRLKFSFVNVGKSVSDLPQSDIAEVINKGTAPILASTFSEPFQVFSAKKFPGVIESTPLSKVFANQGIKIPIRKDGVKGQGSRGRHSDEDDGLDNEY

[2] = target: T2, VeA-HA (A. nidulans VeA with HA tag) (A. nidulans) (UniProt C8VTV4); assay: as above
T2 sequence: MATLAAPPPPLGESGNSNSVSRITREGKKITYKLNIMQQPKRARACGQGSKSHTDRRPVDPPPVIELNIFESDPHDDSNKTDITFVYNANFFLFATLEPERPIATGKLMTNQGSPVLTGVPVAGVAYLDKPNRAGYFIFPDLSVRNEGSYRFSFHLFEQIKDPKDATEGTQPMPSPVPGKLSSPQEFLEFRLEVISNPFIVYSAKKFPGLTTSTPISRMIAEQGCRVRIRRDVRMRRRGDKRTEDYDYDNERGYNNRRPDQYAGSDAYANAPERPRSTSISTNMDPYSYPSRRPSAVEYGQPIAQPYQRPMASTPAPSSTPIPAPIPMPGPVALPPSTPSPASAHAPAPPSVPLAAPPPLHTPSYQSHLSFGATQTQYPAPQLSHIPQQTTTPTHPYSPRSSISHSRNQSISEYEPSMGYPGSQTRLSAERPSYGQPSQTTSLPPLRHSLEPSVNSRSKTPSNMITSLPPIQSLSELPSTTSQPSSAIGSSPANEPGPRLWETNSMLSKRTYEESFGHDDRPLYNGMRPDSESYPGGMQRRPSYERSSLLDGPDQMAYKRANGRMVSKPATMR

[3] = target: T3, VosA-GST (full-length A. nidulans VosA fused to GST) (A. nidulans) (UniProt Q5BBX1); assay: pull-down; GST pull-down (in vitro co-immunoprecipitation): VosA-GST from E. coli supernatant on GST beads, washed, then VelB-His or VelB^ΔIDD-His added for 2 h at 4°C; buffer W (100 mM Tris pH 8, 150 mM NaCl, 1 mM EDTA); Western with α-His and α-GST; only the target purified
T3 sequence: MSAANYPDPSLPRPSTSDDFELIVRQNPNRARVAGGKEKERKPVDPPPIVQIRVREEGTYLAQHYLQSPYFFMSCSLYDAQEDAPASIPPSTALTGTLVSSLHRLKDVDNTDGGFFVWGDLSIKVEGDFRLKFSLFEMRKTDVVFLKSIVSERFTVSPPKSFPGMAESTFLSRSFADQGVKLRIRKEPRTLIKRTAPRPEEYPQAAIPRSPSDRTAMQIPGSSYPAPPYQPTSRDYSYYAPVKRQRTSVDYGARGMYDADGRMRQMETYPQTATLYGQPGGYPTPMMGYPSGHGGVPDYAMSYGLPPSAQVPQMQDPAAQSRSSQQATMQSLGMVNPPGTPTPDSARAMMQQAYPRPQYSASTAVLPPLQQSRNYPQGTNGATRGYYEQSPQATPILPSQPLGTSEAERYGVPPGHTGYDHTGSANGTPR

[4] = target: VelB-GFP (A. nidulans Velvet-like B, full length, fused to GFP) (A. nidulans) (UniProt C8VTS4); assay: co-IP; Co-IP with GFP and HA beads from 20-h vegetative mycelium of veA deletion strains expressing VosA-HA and VelB-GFP or VelB^ΔIDD-GFP; Western with anti-GFP and anti-HA
[5] = target: VelB-GFP (A. nidulans Velvet-like B, full length, fused to GFP) (A. nidulans) (UniProt C8VTS4); assay: co-IP; GFP and HA (anti-HA agarose) pull-downs from vegetative mycelium of A. nidulans strains expressing veA:HA or vosA:HA and velB:gfp or velB^ΔIDD:gfp under native promoters, intact veA; Western with GFP and HA antibodies

“VelB-GFP (A. nidulans Velvet-like B, full length, fused to GFP) (from UniProt C8VTS4 1-369)” was tested, and the binding [1] was “binds” and the binding [2] was “binds”.

With “VelB-His (full-length A. nidulans VelB with His tag) (from UniProt C8VTS4 1-369)” the binding [3] was “binds”.

B1: VosA-HA (A. nidulans VosA with HA tag) (natural protein, UniProt Q5BBX1 1-430, looked up)
chain: MSAANYPDPSLPRPSTSDDFELIVRQNPNRARVAGGKEKERKPVDPPPIVQIRVREEGTYLAQHYLQSPYFFMSCSLYDAQEDAPASIPPSTALTGTLVSSLHRLKDVDNTDGGFFVWGDLSIKVEGDFRLKFSLFEMRKTDVVFLKSIVSERFTVSPPKSFPGMAESTFLSRSFADQGVKLRIRKEPRTLIKRTAPRPEEYPQAAIPRSPSDRTAMQIPGSSYPAPPYQPTSRDYSYYAPVKRQRTSVDYGARGMYDADGRMRQMETYPQTATLYGQPGGYPTPMMGYPSGHGGVPDYAMSYGLPPSAQVPQMQDPAAQSRSSQQATMQSLGMVNPPGTPTPDSARAMMQQAYPRPQYSASTAVLPPLQQSRNYPQGTNGATRGYYEQSPQATPILPSQPLGTSEAERYGVPPGHTGYDHTGSANGTPR
notes: Viability of spores A (VosA), A. nidulans, AN1959; the vosA gene amplified with its 5' flanking region; Plasmid pME4693; strains AGB1136 (with velB:gfp) and AGB1137 (with velB^ΔIDD:gfp); source: A. nidulans, vosA:ha under its native promoter, in extract of vegetative mycelium
In the case of B1, the binding [4] is reported as “binds” and the binding [5] is reported as “binds”.

B2: VeA-HA (A. nidulans VeA with HA tag) (protein, UniProt C8VTV4 1-573)
chain: MATLAAPPPPLGESGNSNSVSRITREGKKITYKLNIMQQPKRARACGQGSKSHTDRRPVDPPPVIELNIFESDPHDDSNKTDITFVYNANFFLFATLEPERPIATGKLMTNQGSPVLTGVPVAGVAYLDKPNRAGYFIFPDLSVRNEGSYRFSFHLFEQIKDPKDATEGTQPMPSPVPGKLSSPQEFLEFRLEVISNPFIVYSAKKFPGLTTSTPISRMIAEQGCRVRIRRDVRMRRRGDKRTEDYDYDNERGYNNRRPDQYAGSDAYANAPERPRSTSISTNMDPYSYPSRRPSAVEYGQPIAQPYQRPMASTPAPSSTPIPAPIPMPGPVALPPSTPSPASAHAPAPPSVPLAAPPPLHTPSYQSHLSFGATQTQYPAPQLSHIPQQTTTPTHPYSPRSSISHSRNQSISEYEPSMGYPGSQTRLSAERPSYGQPSQTTSLPPLRHSLEPSVNSRSKTPSNMITSLPPIQSLSELPSTTSQPSSAIGSSPANEPGPRLWETNSMLSKRTYEESFGHDDRPLYNGMRPDSESYPGGMQRRPSYERSSLLDGPDQMAYKRANGRMVSKPATMR
With B2 the binding [5] was “binds”.

Source: PMC12614781, “The VelB IDD promotes selective heterodimer formation of velvet proteins for fungal development” (Life Science Alliance, 2025)
